Laboratory results published in paper PMC11331657.
These are yes or no findings as the source states them, for the method shown. In cells and extracts the contact can be indirect. Some binding calls cover weakened binding; strength is not graded here.

Chains of the proteins cited; added tags and fusions are not shown. Lines headed by an entry give the natural chain unless they say otherwise; changes in a name come on top.
UniProt P48432: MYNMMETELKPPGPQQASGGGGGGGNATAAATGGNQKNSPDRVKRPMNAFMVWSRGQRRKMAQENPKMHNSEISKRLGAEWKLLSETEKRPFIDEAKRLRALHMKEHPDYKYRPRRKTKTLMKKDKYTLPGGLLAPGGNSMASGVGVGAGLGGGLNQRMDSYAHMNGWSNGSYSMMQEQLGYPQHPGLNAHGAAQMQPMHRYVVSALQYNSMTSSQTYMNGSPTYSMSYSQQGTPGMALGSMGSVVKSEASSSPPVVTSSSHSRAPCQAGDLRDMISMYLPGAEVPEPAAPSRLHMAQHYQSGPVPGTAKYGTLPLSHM
UniProt Q9QWV9: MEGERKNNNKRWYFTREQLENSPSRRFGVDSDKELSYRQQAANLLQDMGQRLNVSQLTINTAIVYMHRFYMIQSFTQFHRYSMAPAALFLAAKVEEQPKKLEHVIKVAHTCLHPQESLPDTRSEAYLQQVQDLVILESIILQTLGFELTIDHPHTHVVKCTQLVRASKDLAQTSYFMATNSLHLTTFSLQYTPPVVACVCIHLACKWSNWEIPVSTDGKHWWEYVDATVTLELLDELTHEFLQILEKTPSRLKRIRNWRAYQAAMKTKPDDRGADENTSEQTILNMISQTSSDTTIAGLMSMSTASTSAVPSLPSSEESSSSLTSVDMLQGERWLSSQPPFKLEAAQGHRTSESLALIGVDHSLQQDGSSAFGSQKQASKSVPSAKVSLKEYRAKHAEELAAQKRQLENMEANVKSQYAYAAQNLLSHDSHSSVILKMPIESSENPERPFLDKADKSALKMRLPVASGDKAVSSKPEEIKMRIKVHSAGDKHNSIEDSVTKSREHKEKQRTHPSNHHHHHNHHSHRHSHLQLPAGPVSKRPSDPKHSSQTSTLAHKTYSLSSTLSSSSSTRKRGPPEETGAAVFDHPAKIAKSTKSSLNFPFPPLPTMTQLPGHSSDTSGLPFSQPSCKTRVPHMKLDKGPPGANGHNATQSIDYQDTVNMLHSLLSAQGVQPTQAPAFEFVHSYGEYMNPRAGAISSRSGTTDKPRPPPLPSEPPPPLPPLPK

Key:
[1] = biological target: SOX2 (endogenous, E14 mouse embryonic stem cells) (mouse (endogenous in E14 ESCs)) (UniProt P48432); assay: co-IP; endogenous SOX2 immunoprecipitated with anti-SOX2 antibody (IgG as control) from E14 ESC whole cell lysate, Protein A/G magnetic beads, 4 °C, 150 mM NaCl, Western blot
[2] = biological target: His-tagged hnRNPK (mouse) (UniProt P61979); assay: pull-down; His-hnRNPK (or His) coupled with Ni-NTA agarose beads, incubated with E. coli lysates expressing GST-SOX2 or its derivates; Western blot with anti-His and anti-GST; only the target purified
[3] = biological target: Flag-tagged CYCLINT1 (expressed in E. coli) (mouse) (UniProt Q9QWV9); assay: co-IP; whole cell lysates of E. coli expressing HA-SOX2 and/or Flag-CYCLINT1 immunoprecipitated with anti-Flag antibody; blotted with anti-HA and anti-Flag

Substance	binding [1]	binding [2]	also measured
CYCLINT1 (endogenous, E14 mouse embryonic stem cells) (from UniProt Q9QWV9 1-724)	binds	–	–
GST-tagged SOX2-HMG (40–119, containing the HMG domain) (from UniProt P48432 40-119) (domain or fragment)	–	binds	–
HA-tagged SOX2 (expressed in E. coli) (from UniProt P48432 1-319)	–	–	binding [3]: binds

More lines, main results first:

binding [1]	binding [2]	Substance	also measured
binds	–	heterogeneous nuclear ribonucleoprotein K (endogenous, E14 mouse embryonic stem cells) (from UniProt P61979 1-463)	–
–	binds	glutathione-S-transferase (GST)-tagged SOX2 (from UniProt P48432 1-319)	–
